# Percent effect of library compounds

Amino acid sequences for entries named in this document (tags omitted).
UniProt P9WPC5, whole entry: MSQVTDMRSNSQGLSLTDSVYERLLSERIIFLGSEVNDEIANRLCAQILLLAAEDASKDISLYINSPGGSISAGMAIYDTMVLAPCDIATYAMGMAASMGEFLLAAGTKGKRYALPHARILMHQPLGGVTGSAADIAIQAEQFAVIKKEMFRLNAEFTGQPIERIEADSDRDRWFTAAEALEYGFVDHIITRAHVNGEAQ
UniProt P9WPC3, whole entry partner: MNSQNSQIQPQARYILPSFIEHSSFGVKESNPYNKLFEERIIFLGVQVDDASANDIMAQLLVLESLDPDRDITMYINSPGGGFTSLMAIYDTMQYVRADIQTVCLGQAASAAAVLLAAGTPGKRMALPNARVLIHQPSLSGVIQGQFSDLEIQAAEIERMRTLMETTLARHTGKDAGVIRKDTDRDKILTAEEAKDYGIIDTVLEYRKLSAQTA
UniProt I6X8D2, whole entry: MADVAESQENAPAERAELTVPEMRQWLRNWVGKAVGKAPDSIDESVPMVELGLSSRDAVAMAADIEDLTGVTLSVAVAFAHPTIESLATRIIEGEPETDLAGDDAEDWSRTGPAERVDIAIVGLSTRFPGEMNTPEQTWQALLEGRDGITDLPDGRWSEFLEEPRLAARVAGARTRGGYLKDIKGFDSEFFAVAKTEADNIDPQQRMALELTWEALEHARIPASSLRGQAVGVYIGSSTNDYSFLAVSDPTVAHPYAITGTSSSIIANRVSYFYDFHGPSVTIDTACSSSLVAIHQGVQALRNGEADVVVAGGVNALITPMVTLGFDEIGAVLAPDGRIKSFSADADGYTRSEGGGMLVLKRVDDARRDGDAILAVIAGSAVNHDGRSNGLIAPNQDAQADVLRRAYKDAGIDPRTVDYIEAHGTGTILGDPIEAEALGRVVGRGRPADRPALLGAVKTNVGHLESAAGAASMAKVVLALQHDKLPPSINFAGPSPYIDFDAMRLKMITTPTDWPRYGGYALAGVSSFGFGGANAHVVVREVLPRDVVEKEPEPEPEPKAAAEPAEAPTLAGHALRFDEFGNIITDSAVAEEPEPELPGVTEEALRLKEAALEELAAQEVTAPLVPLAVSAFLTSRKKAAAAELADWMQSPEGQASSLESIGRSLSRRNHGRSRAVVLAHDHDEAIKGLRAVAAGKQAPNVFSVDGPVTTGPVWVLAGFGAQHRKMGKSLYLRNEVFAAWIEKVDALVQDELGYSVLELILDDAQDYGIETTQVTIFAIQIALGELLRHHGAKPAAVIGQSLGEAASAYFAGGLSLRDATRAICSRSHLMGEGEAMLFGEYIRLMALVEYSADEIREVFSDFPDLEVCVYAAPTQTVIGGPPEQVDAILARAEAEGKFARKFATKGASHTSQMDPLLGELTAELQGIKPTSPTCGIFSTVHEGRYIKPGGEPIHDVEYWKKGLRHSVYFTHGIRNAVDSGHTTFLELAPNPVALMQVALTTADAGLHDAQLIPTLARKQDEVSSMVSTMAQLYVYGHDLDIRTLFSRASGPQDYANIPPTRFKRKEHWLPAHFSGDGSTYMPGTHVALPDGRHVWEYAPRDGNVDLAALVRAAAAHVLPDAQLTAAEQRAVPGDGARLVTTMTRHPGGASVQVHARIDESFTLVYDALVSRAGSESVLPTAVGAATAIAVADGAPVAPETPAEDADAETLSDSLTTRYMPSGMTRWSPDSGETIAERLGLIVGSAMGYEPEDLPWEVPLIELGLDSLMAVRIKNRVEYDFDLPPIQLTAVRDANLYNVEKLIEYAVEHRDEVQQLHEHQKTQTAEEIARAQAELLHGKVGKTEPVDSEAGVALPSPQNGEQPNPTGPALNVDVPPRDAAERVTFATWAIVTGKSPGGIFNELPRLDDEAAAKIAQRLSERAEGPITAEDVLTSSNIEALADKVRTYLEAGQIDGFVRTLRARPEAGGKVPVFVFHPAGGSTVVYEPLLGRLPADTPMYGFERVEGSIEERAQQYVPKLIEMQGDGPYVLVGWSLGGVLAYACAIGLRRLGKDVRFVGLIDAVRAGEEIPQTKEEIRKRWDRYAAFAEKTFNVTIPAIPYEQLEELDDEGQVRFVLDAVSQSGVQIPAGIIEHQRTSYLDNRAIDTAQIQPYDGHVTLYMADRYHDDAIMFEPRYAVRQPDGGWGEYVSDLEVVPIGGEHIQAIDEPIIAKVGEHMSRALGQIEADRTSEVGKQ

Data taken from ChEMBL document CHEMBL3988442, “University of Dundee, Small-Polar-MMV Screening Library” (2021).

Results are given as percent effect.
The controls that fix the scale are not given in the record; negative values are as filed.
This is an unselected part of the compounds tested.
Two or more numbers in one place are separate tests of the same structure; such repeats can differ widely.
A dash means the value is not listed here; it may have been measured.

Leishmania in macrophages: 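Cell assay of Leishmania donovani living inside macrophages; the read-out is not stated. Concentration: 30 µM. Higher reads as stronger inhibition (inferred: compounds with an IC50 in retests scored well above the rest). Size under these conditions: about 69,000 compounds, about 1,000 of them at 50% or above in at least one test.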
Toxoplasma: 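Assay of Toxoplasma gondii numbers, read through their beta-galactosidase reporter with a colour substrate. Concentration: 10 µM. The record gives no direction; the compounds picked for IC50 retests had high values, so higher reads as fewer parasites. About 67,000 compounds were tested under these conditions; 0.38% (about 260) showed 50% or more at least once.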
ClpP1P2: 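ClpP1P2, Mycobacterium tuberculosis (UniProt P9WPC5 and UniProt P9WPC3). Protease assay of ClpP1P2, read by the AMC dye that it sets free. Concentration: 50 µM. Higher reads as stronger inhibition, judged from the few compounds that gave an IC50. Most other retested compounds had strongly negative values. About 69,000 compounds were tested under these conditions; 0.015% (about 10) showed 50% or more at least once.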
T. brucei: 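Whole-parasite assay of Trypanosoma brucei over 72 hours; the read-out is not stated. Tested at 30 µM. Direction is inferred from retests: higher values go with stronger inhibition. Values scatter widely below zero; nearly all retest evidence comes from the higher of the two concentrations used. About 64,000 compounds were tested under these conditions; 1.5% (about 940) showed 50% or more at least once.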
Pks13 thioesterase: 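Enzyme assay of the thioesterase domain of polyketide synthase 13; the read-out is not stated. Target: Polyketide synthase Pks13, Mycobacterium tuberculosis (UniProt I6X8D2). Compounds at 30 µM. Higher reads as stronger inhibition (inferred from which compounds were picked for retests). Size under these conditions: about 67,000 compounds, about 300 of them at 50% or above in at least one test.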

structure,Leishmania in macrophages,Toxoplasma,ClpP1P2,T. brucei,Pks13 thioesterase
Cc1cc(CN2CCN(C(=O)C3(C#N)CCCCC3)CC2)on1,6.067,-1.746,-1.061,-11.47,-13.38
c1ncn(CC2CCCN(Cc3csc(-c4ccsc4)n3)C2)n1 (centres unmarked),36.92,14.99,-22.38,-1.362,-4.818
CCn1ncc(CN(C)C(=O)c2cc(C(F)(F)F)n(C)n2)c1C,-12.48,-23.38,-13.33,-20.67,-3.434
COc1ccc(-c2ccccc2CCN)c(OC)c1,75.35,-4.284,-9.535,-23.49,-7.25
CCCOCC1CCN(C(=O)c2cnc(-c3csc(C)n3)nc2O)C1 (centres unmarked),9.227,-50.09,-10.18,39.53,-17.8
Cc1cc(NC(=O)CCN2CCCC2Cn2cccn2)no1 (centres unmarked),22.22,5.84,-5.981,12.49,-14.11
[H][C@@]12CCN(C(=O)c3cc(C)c(C)s3)C[C@]1(c1nc(C)no1)CCO2,14.82,9.729,-,-11.54,-
O=C(O)C(F)(F)F.O=C(O)C(F)(F)F.[H][C@@]12CN(CC3CC3)C[C@]1([H])OCCN2CC(=O)NC,7.101,-0.1793,-,-2.865,-
Cc1cc(NC(=O)Cc2ccc3c(c2)OCO3)n(C)n1,20.94,-8.17,13.34,-11.96,-19.1
CCN(Cc1cc(-c2ccccn2)no1)C1CCS(=O)(=O)C1 (centres unmarked),14.95,-12.54,10.26,-25.9,-11.34
Cc1n[nH]c(C2CN(Cc3csc(C4CCCC4)n3)CCO2)n1 (centres unmarked),-19.64,-1.908,-3.889,25.98,-29.15
CCN(Cc1ccc2c(c1)OCCO2)C(=O)Cn1cccnc1=O,-5.848,-11.47,-16.71,-5.062,-7.952
O=C(NCc1ccc(F)cc1)NCC1(N2CCOCC2)CCSC1 (centres unmarked),4.247,-0.1264,-10.26,-69.15,23.92
Cl.O=C(CCN1CCCCC1)Nc1c2c(cc3c1CCC3)CCC2,30.44,18.62,-,0.4852,-
COCc1nc2ncc3c(=O)n(-c4ccccc4OC)ccc3n2n1,6.717,-10.89,-12.6,-12.6,26.52
CC(O)c1cn(Cc2ccccc2)nn1 (centres unmarked),5.004,-7.166,-17.43,-,-17.4
CCCNC(=O)[C@@H]1CCCN1[C@@H](C(=O)NC)C1CC1,-,-,3.549,-,-18.34
Cc1cnn(CC2CCCN2CCc2nc3ccccc3c(=O)[nH]2)c1 (centres unmarked),22.62,-,1.051,28.24,-28.72
Cc1cccc(OCCNC(=O)CN2CCCC2Cn2cccn2)c1 (centres unmarked),20.94,-4.583,0.318,28.89,-16.38
CC/N=c1/c(NC(=O)NCCOC)c(O)oc2ccccc12,3.523,10.48,7.966,-,-20.83
CN(Cc1nc2ccccc2[nH]1)C(=O)CN(C)c1ccc(Cl)cn1,-10.85,1.176,16.11,-26.25,-10.67
O=C(CCC1CCN(C2CCSCC2)CC1)NCC1CCCO1 (centres unmarked),-3.248,13.01,-3.598,2.729,-20.08
c1ccc2oc(CCCN3CCCC3c3noc(C4CC4)n3)nc2c1 (centres unmarked),8.146,40.65,-26.29,-46.68,-6.998
CCc1cc(N2CCC(N3CCSCC3)CC2)n2nccc2n1,1.23,3.643,-5.75,14.76,-10.81
NC(=O)c1ccc(-n2ccnc2C2CC2)cc1N1CCCC1,-0.1905,6.231,6.413,12.82,-18.18
Cn1cc2c(n1)C(CNC1CCOCC1)OCC2.O=C(O)C(F)(F)F (centres unmarked),5.62,3.228,-,-28.88,-
CCN(CC)C(=O)[C@@H]1C[C@@H](NC(=O)c2ccn(C(C)(C)C)c2)CN1C,11.09,1.1,-1.366,-34.74,-
CC1N(C)C(=O)COC12CCN(Cc1nccs1)CC2.O=C(O)C(F)(F)F (centres unmarked),-18.09,5,-,-18.5,-
CCN1CCN(C(=O)c2ccc3c(c2)NC(=O)CN3)[C@H]2CS(=O)(=O)C[C@H]21,-,-,-6.674,-,-1.338
CN(C)CCN1CCOCC2(C1)CN(Cc1ccco1)CCO2 (centres unmarked),-,-,5.464,-,-4.728
[H][C@@]12CCN(Cc3cnn(C)c3)[C@]1([H])CC[C@@H](C(=O)NCCOC)O2,14.77,-0.7479,-,19.43,-
CC(C)Nc1n[nH]c2nc(C3CCN(C(=O)c4ccccn4)C3)ccc12 (centres unmarked),-11.06,10.43,13.14,-41.32,-18.57
Cc1nc(C)c(C(=O)N2CCc3nc4sc(C)cc4c(=O)n3CC2)o1,-3.204,-5.607,0.1166,5.144,-1.911
COc1ccc(CN(C)C(=O)CN2CC(n3cccn3)C2)cc1F,-0.6025,6.77,0.7198,-7.431,-30.06
CO[C@@H]1CCN(c2nnc(C)s2)C[C@@H]1Cc1ccccc1,-,-,-28.51,-,-31.02
CNC(=O)c1ccc2c(c1)C1(CCN(CC(C)C)CC1)C(=O)N2.O=C(O)C(F)(F)F,11.9,3.775,-,43.88,-
Cn1ccc(CN2CCCC2c2ccc3c(c2)OCCCO3)cc1=O (centres unmarked),40.01,-25.19,26.97,-8.721,-1.53
Cn1nccc1C(=O)N1C[C@@H]2CC[C@H](Oc3cccc(F)c3)[C@@H]2C1,-,-,2.773,-,2.537
CC(C)CC(=O)N1CCN(Cc2csc(-c3ncccn3)n2)CC1,7.126,17.09,5.231,33.17,-13.69
Cc1ccc2c(c1)C(NC(C)C)CC21CCNCC1.Cl (centres unmarked),-0.9168 & 13.31,27.4,-,-30.38,-
CC(C)N(C)C(=O)C1CCC(=O)N(CCc2cccc(F)c2)C1 (centres unmarked),23.98,6.145,-16.04,-8.838,-42.79
Fc1cccc(-n2cccn2)c1NCc1nnc(C2CC2)o1,14.46,-4.945,-2.855,-20,-25.93
Cc1cnc(C(=O)N2CCCC3(CCN(c4cnn(C)c4)C3=O)C2)cn1 (centres unmarked),-31.28,1.923,-11.82,-22.67,-7.938
COc1c(C2CCCN2C(=O)c2ccco2)c(C)nn1C (centres unmarked),11.94,-0.6844,-8.361,-51.5,5.219

The first 4 entries again:

Result for Cc1cc(CN2CCN(C(=O)C3(C#N)CCCCC3)CC2)on1 was Leishmania in macrophages: 6.067%; Toxoplasma: -1.746%; ClpP1P2: -1.061%; T. brucei: -11.47%; Pks13 thioesterase: -13.38%.
Result for c1ncn(CC2CCCN(Cc3csc(-c4ccsc4)n3)C2)n1 (centres unmarked) was Leishmania in macrophages: 36.92%; Toxoplasma: 14.99%; ClpP1P2: -22.38%; T. brucei: -1.362%; Pks13 thioesterase: -4.818%.
Result for CCn1ncc(CN(C)C(=O)c2cc(C(F)(F)F)n(C)n2)c1C was Leishmania in macrophages: -12.48%; Toxoplasma: -23.38%; ClpP1P2: -13.33%; T. brucei: -20.67%; Pks13 thioesterase: -3.434%.
Result for COc1ccc(-c2ccccc2CCN)c(OC)c1 was Leishmania in macrophages: 75.35%; Toxoplasma: -4.284%; ClpP1P2: -9.535%; T. brucei: -23.49%; Pks13 thioesterase: -7.25%.